# For some assays here: No signal at the amounts used counts as a negative. For some assays here: Tags and fusion partners may be left off the protein sequences shown. For some assays here: Construct, isoform or probe ends are uncertain for at least one entry. For some assays here: The comparison behind a weaker result is the experiment's own reference, which may not be listed here. For some assays here: At least one verdict was read from the data and is not stated in words by the source.
# Chains of the proteins cited; added tags and fusions are not shown. Lines headed by an entry give the natural chain unless they say otherwise; changes in a name come on top.
# UniProt P38859: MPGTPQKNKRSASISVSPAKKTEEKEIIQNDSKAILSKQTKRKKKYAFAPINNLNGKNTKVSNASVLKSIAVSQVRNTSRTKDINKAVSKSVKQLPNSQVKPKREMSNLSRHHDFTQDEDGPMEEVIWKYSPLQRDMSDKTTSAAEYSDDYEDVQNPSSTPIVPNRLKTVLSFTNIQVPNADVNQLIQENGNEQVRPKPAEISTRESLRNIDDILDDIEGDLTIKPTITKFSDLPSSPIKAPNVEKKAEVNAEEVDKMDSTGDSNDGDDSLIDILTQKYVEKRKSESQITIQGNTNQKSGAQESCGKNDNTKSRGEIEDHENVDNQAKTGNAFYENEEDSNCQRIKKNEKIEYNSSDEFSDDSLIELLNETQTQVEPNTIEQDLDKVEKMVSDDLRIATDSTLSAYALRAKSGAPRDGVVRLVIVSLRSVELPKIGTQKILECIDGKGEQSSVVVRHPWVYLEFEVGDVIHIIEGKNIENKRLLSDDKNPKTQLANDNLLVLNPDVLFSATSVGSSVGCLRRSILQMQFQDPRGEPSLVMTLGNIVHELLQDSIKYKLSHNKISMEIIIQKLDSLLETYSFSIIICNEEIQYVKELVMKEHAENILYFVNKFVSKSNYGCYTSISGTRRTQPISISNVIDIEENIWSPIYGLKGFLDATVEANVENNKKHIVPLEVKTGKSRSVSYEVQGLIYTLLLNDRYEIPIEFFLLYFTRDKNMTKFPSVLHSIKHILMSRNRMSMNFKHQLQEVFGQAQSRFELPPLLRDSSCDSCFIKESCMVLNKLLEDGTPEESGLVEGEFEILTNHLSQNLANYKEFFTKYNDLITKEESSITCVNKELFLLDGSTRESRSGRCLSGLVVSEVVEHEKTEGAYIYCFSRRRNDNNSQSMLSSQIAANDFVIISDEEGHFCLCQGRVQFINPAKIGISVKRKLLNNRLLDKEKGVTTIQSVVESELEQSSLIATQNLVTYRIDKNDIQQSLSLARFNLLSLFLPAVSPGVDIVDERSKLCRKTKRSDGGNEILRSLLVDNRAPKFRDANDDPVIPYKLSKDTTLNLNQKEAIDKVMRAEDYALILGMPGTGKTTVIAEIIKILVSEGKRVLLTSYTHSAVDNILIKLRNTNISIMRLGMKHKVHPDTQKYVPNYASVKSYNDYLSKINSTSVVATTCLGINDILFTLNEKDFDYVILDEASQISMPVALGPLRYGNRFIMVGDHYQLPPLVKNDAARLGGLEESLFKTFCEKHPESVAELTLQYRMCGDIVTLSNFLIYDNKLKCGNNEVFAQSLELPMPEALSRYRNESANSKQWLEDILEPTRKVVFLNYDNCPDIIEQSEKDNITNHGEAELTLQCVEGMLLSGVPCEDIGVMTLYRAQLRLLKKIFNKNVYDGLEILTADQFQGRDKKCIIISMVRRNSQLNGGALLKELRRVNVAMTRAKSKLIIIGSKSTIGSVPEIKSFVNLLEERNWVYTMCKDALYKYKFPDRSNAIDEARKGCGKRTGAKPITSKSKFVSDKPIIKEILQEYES
# Experiments:
# Test in all cases: EMSA
# [1] = molecular target: yeast Dna2 (S. cerevisiae) (UniProt P38859); conditions: 182 nM protein, EMSA: 25 mM Tris-HCl pH 8.0, 0.1 mg/ml BSA, 5 mM EDTA, with or without 1 mM DTT, 30 min on ice, 4-5 nM FAM-DNA or 1 nM 32P-DNA, recombinant protein, protein details: N-terminal FLAG/HA, C-terminal His6, label: FAM (strand and end not shown)
# mDna2 (mouse) = molecular target: T1, mDna2 (mouse) (UniProt Q6ZQJ5); conditions: 20 h air exposure, loses its ability to bind; EMSA: 25 mM Tris-HCl pH 8.0, 0.1 mg/ml BSA, 5 mM EDTA, with or without 1 mM DTT, 30 min on ice; 4-5 nM FAM-DNA or 1 nM 32P-DNA; recombinant protein; residues 1-1062; protein details: N-terminal His6 (TEV); label: FAM (strand and end not shown)
# T1 sequence (looked up): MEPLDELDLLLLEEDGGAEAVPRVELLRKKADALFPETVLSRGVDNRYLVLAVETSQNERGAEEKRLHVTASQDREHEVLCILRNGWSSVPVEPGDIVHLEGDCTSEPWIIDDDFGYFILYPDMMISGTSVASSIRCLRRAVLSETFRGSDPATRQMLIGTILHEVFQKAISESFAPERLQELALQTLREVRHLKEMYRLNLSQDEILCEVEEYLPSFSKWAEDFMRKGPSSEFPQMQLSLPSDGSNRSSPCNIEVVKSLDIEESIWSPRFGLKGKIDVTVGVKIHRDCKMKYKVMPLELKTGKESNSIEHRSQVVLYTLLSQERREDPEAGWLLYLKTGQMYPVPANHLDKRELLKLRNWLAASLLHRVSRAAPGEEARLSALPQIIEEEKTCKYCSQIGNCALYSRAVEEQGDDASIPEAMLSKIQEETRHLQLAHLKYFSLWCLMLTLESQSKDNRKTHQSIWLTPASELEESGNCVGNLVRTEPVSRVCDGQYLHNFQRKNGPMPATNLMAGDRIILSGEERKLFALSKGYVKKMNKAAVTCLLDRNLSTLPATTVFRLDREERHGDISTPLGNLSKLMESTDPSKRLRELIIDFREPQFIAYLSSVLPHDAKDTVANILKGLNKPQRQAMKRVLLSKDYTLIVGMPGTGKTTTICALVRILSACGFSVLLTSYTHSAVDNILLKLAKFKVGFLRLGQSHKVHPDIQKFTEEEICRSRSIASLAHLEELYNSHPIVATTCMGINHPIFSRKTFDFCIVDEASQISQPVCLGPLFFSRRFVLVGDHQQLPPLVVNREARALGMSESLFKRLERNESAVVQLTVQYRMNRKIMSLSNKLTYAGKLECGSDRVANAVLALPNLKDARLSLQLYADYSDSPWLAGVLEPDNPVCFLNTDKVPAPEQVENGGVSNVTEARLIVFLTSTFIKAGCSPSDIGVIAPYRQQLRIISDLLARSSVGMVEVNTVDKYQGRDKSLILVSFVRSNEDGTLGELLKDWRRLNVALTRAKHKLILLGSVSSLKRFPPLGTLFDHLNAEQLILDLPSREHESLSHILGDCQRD
# DNA2 WT (human) = molecular target: T2, DNA2 WT (human) (UniProt P51530); conditions: EMSA: 25 mM Tris-HCl pH 8.0, 0.1 mg/ml BSA, 5 mM EDTA, with or without 1 mM DTT, 30 min on ice, 4-5 nM FAM-DNA or 1 nM 32P-DNA, recombinant protein, residues 1-1060, protein details: His6 and FLAG, label: FAM (strand and end not shown)
# T2 sequence (looked up): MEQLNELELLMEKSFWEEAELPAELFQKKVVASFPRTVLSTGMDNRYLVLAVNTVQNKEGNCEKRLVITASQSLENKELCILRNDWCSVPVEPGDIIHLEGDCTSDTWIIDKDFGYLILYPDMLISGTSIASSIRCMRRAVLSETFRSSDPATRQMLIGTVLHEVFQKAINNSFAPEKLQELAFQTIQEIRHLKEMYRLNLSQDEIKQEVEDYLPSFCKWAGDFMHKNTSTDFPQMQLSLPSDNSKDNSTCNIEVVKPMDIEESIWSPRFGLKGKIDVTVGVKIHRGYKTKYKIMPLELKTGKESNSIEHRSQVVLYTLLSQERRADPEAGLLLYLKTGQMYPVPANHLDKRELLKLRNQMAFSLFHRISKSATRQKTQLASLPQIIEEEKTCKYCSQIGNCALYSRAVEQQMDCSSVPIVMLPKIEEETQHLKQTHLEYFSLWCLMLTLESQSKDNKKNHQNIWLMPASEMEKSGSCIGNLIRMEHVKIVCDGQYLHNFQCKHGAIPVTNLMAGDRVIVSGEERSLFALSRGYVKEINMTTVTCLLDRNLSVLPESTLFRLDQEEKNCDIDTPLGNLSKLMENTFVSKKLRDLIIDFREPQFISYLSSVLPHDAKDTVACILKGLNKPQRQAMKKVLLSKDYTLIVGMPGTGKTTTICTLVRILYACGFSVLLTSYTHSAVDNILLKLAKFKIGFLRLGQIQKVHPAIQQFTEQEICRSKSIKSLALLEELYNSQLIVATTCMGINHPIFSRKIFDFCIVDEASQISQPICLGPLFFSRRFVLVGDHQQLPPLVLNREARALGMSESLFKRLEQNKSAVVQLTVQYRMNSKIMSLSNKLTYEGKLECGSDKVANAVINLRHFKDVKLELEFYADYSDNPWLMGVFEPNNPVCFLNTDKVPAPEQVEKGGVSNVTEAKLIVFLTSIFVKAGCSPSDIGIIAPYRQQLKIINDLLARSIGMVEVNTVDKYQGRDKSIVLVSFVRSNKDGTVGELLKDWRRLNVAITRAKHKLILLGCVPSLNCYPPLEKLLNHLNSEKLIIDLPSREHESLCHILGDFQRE
sequence,measurement,setting,value
ATCGATAGTCGGATCCTCTAGACAGCTCCATGTAGCAAGGCACTGGTAGAATTCGGCAGCGT / GACGCTGCCGAATTCTACCAGTGCCTTGCTAGGACATCTTTGCCCACCTGCAGGTTCACCC / TGGGTGAACCTGCAGGTGGGCAAAGATGTCC [5' flap (FAM)],binding result,[1]; H2O2,binds more weakly
same,binding result,[1]; no H2O2,binds
same,binding result,mDna2 (mouse),no binding
same,binding result,DNA2 WT (human); 50 nM protein pre-incubated with H2O2,binds more weakly
same,binding result,DNA2 WT (human); 20 h air exposure without reducing agent (severely impaired),binds more weakly
